The nature of this data set: Quantitative GLYAT4621 ELISA of leaf and seed, two generations (ng/mg dry weight). Details: species or system Zea mays.

B1: GLYAT4621: glyphosate acetyltransferase protein encoded by the glyat4621 gene, expressed in DP-098140-6 maize (protein)
chain: MAIEVKPINAEDTYDLRHRVLRPNQPIEACMFESDLTRSAFHLGGFYGGKLISVASFHQAEHSELQGKKQYQLRGVATLEGYREQKAGSSLVKHAEEILRKRGADMIWCNARTSASGYYRKLGFSEQGEVFDTPPVGPHILMYKR
modifications: GAT4621 probe
notes: glyphosate acetyltransferase protein encoded by the glyat4621 gene, expressed in DP-098140-6 maize
Turning to B1, the “GLYAT4621 protein concentration, Mean” value by setting is: (98140 Generation 1, leaf) 34 ng/mg Tissue Dry Weight; (98140 Generation 1, seed (only non-segregating seed samples)) 9.6 ng/mg Tissue Dry Weight; (98140 Generation 2, leaf) 34 ng/mg Tissue Dry Weight; (98140 Generation 2, seed) 10 ng/mg Tissue Dry Weight; (Control Generation 1, leaf, zero assigned to results below sample LLOQ) 0 ng/mg Tissue Dry Weight; (Control Generation 1, seed, zero assigned to results below sample LLOQ) 0 ng/mg Tissue Dry Weight. The “GLYAT4621 protein concentration, Mean” value stood at 0 ng/mg Tissue Dry Weight (Control Generation 2, leaf, zero assigned to results below sample LLOQ) and 0 ng/mg Tissue Dry Weight (Control Generation 2, seed, zero assigned to results below sample LLOQ).

These data come from patent US7897846B2, “Maize event DP-098140-6 and compositions and methods for the identification and/or detection thereof” (Pioneer Hi-Bred Int'l, Inc., priority 2006, dated 2011).
